The values below come from PMC3734201.

Chains of the proteins cited; added tags and fusions are not shown. Residues count along the entry.
UniProt B6KV60, residues 1293-1345: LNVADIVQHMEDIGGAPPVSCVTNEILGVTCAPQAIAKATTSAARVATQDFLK
UniProt B6KAM0, residues 67-569: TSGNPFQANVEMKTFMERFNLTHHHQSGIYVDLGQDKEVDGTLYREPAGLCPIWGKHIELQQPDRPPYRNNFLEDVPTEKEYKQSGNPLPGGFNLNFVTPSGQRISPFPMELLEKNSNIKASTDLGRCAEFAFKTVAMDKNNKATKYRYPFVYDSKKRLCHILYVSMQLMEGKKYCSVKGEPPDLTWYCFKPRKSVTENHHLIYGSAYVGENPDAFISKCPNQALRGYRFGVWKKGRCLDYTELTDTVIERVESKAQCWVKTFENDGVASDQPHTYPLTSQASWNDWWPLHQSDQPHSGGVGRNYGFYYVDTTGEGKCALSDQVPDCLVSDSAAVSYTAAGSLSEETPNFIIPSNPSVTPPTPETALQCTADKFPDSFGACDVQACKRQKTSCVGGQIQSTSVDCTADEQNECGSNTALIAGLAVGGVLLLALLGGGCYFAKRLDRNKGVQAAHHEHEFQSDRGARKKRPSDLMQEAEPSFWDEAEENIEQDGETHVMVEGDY

No constants are given. Whether binding was seen depends on the method and setting. In cells and extracts the contact can be indirect. Some results given as binding are weak or reduced against the parent protein; the word gives no strength.

This assay concerns the target GST fusion of domain 3 of generic RON2 (amino acids 1293-1345) (Toxoplasma gondii) (UniProt B6KV60). Kind of assay: pull-down; Glutathione-sepharose beads prebound with 0.5 µM GST, GST-gD3 or GST-sD3 were added to cleared NP-40 lysate of tachyzoites (10 mM Tris-HCl pH 8.0, 150 mM NaCl, 1 mM EDTA, 0.1% NP-40). Rotated at room temperature for about two hours, washed three times, then immunoblotted; only the target purified.

As to “generic Apical Membrane Antigen 1 (AMA1) (from UniProt B6KAM0 67-569)”, the binding entry is given as “binds”.
